The text below walks through data of publication PMC7657459, “A second hybrid-binding domain modulates the activity of Drosophila ribonuclease H1”.

Protein sequences, listed by entry. Tags and fused reporters are not part of them. Lines headed by an entry give the natural chain unless they say otherwise; changes in a name come on top.
UniProt A1Z769: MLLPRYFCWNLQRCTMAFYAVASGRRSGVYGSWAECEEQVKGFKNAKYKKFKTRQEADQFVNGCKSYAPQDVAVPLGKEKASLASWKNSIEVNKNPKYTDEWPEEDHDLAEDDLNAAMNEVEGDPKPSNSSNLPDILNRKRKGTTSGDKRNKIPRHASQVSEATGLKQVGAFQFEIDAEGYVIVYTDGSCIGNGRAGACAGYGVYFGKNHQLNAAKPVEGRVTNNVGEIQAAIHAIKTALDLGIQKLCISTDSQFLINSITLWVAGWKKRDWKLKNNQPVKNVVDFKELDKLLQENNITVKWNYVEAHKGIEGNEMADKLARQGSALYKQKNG

No constants are given. Whether binding was seen depends on the method and setting. Binding seen in cells or lysates may run through a third protein. These calls come from enrichment with a bait or labelling near it, and not all partners need be listed.

The target of the assay is Drosophila melanogaster ribonuclease H1, V5/His epitope-tagged (Drosophila melanogaster) (UniProt A1Z769). Briefly: affinity purification with mass spectrometry; S2 cells expressing the tagged RNase H1 bait, cross-linked in vivo with 1% formaldehyde, RIPA lysis, RNase A/DNase I/Benzonase treatment, anti-V5 immunoprecipitation, LC-MS/MS; hits found in all 5 replicates of a bait and absent from all mtYFP controls.

B1: Sniffer (protein, UniProt Q9W3H4 1-247)
chain: MNSILITGCNRGLGLGLVKALLNLPQPPQHLFTTCRNREQAKELEDLAKNHSNIHILEIDLRNFDAYDKLVADIEGVTKDQGLNVLFNNAGIAPKSARITAVRSQELLDTLQTNTVVPIMLAKACLPLLKKAAKANESQPMGVGRAAIINMSSILGSIQGNTDGGMYAYRTSKSALNAATKSLSVDLYPQRIMCVSLHPGWVKTDMGGSSAPLDVPTSTGQIVQTISKLGEKQNGGFVNYDGTPLAW
With B1, the binding entry is on record as “binds”.

B2: Peroxiredoxin 5 (protein, UniProt Q960M4 1-190)
chain: MRVLSCKFLGRVVNSALPQQIISLRSLSKTSAAMVKVGDSLPSVDLFEDSPANKINTGDLVNGKKVIIFGVPGAFTPGCSKTHLPGYVSSADELKSKQGVDEIVCVSVNDPFVMSAWGKEHGAAGKVRLLADPAGGFTKALDVTIDLPPLGGVRSKRYSLVVENGKVTELNVEPDGTGLSCSLANNIGKK
For B2, the binding entry is recorded as “binds”.
